Assay results: patent publication US20110160136A1, “POLYPHENOLS FOR THE TREATMENT OF CARTILAGE DISORDERS” (NESTEC S.A., priority 2008, published 2011)
For at least one compound, name, drawing or mass did not settle the structure.

Tested on: Articular cartilage explants
Test: IL1β-induced glycosaminoglycan (GAG) release from 35S-labelled articular cartilage explants
Assay type: cell-based, cows
Conditions: polyphenolic compounds extracted e.g. from rosemary plants; qualitative statement
Excerpt: Articular cartilage explants are dissected out of the metacarpophalangeal joint of old cows (8-10 years). The skin is removed from the feet. The articulation is opened transversally. Intra articular ligaments are transected. Full thickness slices of cartilage are dissected out and put in a Petri dish containing DMEM supplemented with 20% FBS ([…]) and antibiotics (penicillin, streptomycin and gentamycin). Under the hood, disks of cartilage obtained by using a biopsy punch (6 mm in diameter) are distributed between the wells of a 96-wells plate containing 200 μl of medium (DMEM+20% FBS, 1% penicillin/streptomycin, 0.1% gentamycin) per well. […]
Sulphur 35 (35S) was added to the medium to be incorporated into newly synthesized polysulfated glycosaminoglycans within the extracellular matrix of the explants. After 72 hours, several washes were performed to eliminate the non-incorporated radioactivity. The explants were then treated for 72 hours, after which the supernatants were collected and the amount of radioactivity released in the medium was measured with a beta counter, as a marker of glycosaminoglycan (GAG) catabolism. The radioactivity present in the explants was also measured and used to normalize the amount of radioactivity released in the media. […]
GAG release=radioactivity in the supernatants/(radioactivity in the supernatants+radioactivity in the explants)

SMILES: O=C(O)[C@H]1O[C@@H](Oc2cc3oc(-c4ccc(O)cc4)cc(=O)c3c(O)c2O)[C@H](O)[C@@H](O)[C@@H]1O [scutellarin]
- anti-catabolic potential: anti-catabolic potential
